Data as given in US10751373B2, “PD-L1 expressing hematopoietic stem cells and uses” (The Children's Medical Center Corporation, priority 2015, dated 2020).
At least one compound was matched to its structure with a doubt left.

Tested on: hyperglycemic NOD mice
Assay: Reversal of hyperglycemia in NOD mice after adoptive transfer
Assay type: in vivo
Details: doxycycline alone

Structure (SMILES): C[C@H]1c2cccc(O)c2C(=O)C2=C(O)[C@]3(O)C(=O)C(C(N)=O)=C(O)[C@@H](N(C)C)[C@@H]3[C@@H](O)[C@@H]21 [doxycycline]
- reversion to normoglycemia: none
